# From patent US20060251597A1, “ANTI-ODOR COMPOSITIONS AND THERAPEUTIC USE” (priority 2005, published 2006)
# For at least one compound, name, drawing or mass did not settle the structure.
# Assay: panel sniff tests of solvents, ingredients and amines against thiol malodor (general statements)
# Conditions: solvent or ingredient, based on the panel tests
# Method: Initially, a malodor compound such as about 5% by weight was prepared in water solution or in oil-in-water emulsion. A sulfone or organic amine of the present embodiments was added at various concentrations for example, ranging from about 2%, 1%, 0.5% and 0.1% to the formulations containing the malodor substance. The composition containing the malodor substance without a sulfone or organic amine was used as the control.
structure (smiles),measurement,value
CCCCOCCO [butoxyethanol],prevention of malodor produced by a thiol or similar malodor compounds,effectively prevent malodor
